Test results as given in paper PMC1802757.
These are yes or no findings as the source states them, for the method shown. Some entries that bind do so weakly or less than the wild type.

Protein sequences, listed by entry. Tags and fused reporters are not part of them. Residues count along the entry.
UniProt P12830, residues 155-882: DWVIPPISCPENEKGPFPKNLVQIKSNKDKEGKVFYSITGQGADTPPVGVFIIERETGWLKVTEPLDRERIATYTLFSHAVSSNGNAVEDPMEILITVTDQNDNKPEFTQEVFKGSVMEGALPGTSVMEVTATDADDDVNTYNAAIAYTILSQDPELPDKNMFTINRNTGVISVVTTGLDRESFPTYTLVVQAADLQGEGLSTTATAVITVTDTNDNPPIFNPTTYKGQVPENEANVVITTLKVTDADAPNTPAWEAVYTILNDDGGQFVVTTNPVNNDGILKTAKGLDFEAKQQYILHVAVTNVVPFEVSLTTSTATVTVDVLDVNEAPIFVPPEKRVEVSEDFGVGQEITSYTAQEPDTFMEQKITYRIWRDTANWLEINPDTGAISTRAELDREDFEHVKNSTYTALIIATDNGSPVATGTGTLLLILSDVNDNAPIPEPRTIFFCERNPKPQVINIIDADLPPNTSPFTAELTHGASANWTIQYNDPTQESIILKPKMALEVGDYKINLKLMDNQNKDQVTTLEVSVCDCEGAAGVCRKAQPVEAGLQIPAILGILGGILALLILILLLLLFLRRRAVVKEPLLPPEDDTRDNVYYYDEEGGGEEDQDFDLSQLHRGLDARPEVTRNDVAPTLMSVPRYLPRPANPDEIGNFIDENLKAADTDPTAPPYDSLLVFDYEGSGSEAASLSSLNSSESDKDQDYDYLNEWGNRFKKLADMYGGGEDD
UniProt P19022, residues 160-906: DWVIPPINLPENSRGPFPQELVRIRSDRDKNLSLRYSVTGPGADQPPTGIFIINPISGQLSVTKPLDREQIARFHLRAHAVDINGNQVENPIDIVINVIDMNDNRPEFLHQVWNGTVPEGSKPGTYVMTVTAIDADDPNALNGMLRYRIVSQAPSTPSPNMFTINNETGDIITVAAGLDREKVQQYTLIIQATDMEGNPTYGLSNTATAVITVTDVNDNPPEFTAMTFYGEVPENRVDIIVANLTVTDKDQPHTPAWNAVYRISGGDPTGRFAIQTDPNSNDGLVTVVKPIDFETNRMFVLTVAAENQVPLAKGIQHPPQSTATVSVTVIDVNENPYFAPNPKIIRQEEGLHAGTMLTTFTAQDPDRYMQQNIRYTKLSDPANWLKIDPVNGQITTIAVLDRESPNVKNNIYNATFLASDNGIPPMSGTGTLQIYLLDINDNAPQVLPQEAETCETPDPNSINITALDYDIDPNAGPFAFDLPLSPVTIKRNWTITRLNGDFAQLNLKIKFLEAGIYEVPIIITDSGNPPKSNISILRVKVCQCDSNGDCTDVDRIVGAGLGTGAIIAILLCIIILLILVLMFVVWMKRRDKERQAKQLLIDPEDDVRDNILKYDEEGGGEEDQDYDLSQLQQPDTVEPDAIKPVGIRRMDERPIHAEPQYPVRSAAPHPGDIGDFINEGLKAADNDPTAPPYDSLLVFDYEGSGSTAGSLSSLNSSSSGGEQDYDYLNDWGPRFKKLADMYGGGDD
UniProt Q59L12, residues 17-432: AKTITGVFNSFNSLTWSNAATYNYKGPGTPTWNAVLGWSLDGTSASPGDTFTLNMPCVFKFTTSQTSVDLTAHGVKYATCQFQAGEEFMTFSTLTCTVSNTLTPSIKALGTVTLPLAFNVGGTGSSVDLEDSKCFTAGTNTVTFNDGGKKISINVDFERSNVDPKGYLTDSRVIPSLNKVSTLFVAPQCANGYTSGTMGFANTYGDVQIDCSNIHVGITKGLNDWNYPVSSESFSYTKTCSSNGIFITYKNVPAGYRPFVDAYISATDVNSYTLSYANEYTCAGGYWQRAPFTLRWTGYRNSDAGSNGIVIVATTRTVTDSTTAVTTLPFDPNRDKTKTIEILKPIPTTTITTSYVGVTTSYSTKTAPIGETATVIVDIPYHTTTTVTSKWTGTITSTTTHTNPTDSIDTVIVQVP
UniProt Q5A8T4, residues 17-432: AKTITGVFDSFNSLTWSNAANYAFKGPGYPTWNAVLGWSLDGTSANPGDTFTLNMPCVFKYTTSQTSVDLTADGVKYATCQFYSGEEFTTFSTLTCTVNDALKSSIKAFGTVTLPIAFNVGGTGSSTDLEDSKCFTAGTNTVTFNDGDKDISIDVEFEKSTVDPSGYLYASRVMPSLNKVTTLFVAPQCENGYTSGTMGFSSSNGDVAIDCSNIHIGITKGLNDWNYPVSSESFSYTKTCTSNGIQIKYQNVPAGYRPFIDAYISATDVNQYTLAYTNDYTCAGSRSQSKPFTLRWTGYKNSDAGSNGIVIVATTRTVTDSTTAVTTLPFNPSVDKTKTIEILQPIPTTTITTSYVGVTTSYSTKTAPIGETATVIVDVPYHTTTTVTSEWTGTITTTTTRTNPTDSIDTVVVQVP

Assays:
[1] = molecular target: human E-cadherin expressed on CHO cells (human) (UniProt P12830); assay: association of protein-coated latex beads with cells (differential fluorescence assay); 3 x 10^5 fluorescent latex beads coated with rAls1-N, rAls3-N or biotinylated BSA incubated for 45 min with CHO cells expressing human N-cadherin or E-cadherin (or control CHO cells) on coverslips; cell-associated (endocytosed plus adherent) beads counted, as a percentage of BSA-coated beads; only the binder purified
[2] = molecular target: human N-cadherin expressed on CHO cells (human) (UniProt P19022); assay: as above

recombinant N-terminal portion of Als3 (from UniProt Q59L12 17-432) (domain or fragment)
binding [1]: binds weakly | binding [2]: binds weakly

recombinant N-terminal portion of Als1 (from UniProt Q5A8T4 17-432) (domain or fragment)
binding [2]: binds weakly
